# Assay results: publication PMC7862700
# The list shows a part of the results, in another mix than the full data. At the low end of the ranking the order means little.
# Target: T1, SPDEF (UniProt O95238)
# T1 sequence: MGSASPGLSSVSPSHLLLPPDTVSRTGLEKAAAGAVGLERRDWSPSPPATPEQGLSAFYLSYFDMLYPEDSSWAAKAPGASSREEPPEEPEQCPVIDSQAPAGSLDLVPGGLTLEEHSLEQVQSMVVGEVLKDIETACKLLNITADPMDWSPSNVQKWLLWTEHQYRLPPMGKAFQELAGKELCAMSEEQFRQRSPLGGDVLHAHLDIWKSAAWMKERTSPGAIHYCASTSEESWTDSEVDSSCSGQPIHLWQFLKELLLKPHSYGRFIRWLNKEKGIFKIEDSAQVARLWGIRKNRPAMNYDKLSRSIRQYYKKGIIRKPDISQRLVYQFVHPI
# Assay: DAPPL (digital affinity profiling via proximity ligation, sequencing)
# Settings: 10 mM Tris-HCl pH 7.5, 50 mM NaCl, 1 mM DTT, 4% glycerol, room temperature, 30 min; GST-TFs on glutathione beads, 16-mer random dsDNA library, 0.1% …; high values mean tight binding; double strand, one strand shown; scale: fold enrichment (6-mer frequency, TF over GST control)
row,Sequence,binding signal
1,TATGGC,1.27
2,CTTCCT,2.74
3,TCTGTC,1.15
4,TGAACT,1.16
5,ACATTC,1.27
6,ACTTAA,1.17
7,CTCTAG,1.24
8,CTAAAG,1.26
9,GGTCTT,1.12
10,CTGATA,1.15
11,TCGCTC,1.19
12,GGTTTA,1.1
13,ATTTGA,1.19
14,GTCTTA,1.17
15,ATCATG,1.07
16,AAGTTT,1.37
17,AATTGT,1.21
18,TTGGGT,1.04
19,ATTCTA,1.23
20,GGTCCC,1.29

row,Sequence,binding signal
1,TTATTT,1.19
2,TATTAT,1.29
3,TGGTGT,1.23
4,AAAGAC,1.01
5,TCCCAC,1.33
6,TGTTCT,1.22
7,CCATTC,1.13
8,CGCCTT,1.3
9,TAGTCT,0.938
10,TCCCCT,1.54
11,CAACAA,0.995
12,AGCTTC,1.67
13,CTAAGT,1.3
14,AATGGG,1.12
15,ACATGG,0.914
16,GTACTC,1.02
17,TAACAT,1.34
18,TTTATA,1.3
19,TTTACG,1.26

# An excerpt of these results, with tabs:
row	Sequence	binding signal
4	AAAGAC	1.01
5	TCCCAC	1.33
